Measurements as given in publication PMC8058344, “ARIH1 signaling promotes anti-tumor immunity by targeting PD-L1 for proteasomal degradation” (Nature Communications, 2021).
No constants are given. Whether binding was seen depends on the method and setting. Binding seen in cells or lysates may run through a third protein. Binding calls can cover weak binding; strength is not graded here.

Sequences of proteins named here, by UniProt entry; tags and fusion partners are left off. A change or cut given only in a name is not applied to a line headed by its entry.
UniProt Q9NZQ7: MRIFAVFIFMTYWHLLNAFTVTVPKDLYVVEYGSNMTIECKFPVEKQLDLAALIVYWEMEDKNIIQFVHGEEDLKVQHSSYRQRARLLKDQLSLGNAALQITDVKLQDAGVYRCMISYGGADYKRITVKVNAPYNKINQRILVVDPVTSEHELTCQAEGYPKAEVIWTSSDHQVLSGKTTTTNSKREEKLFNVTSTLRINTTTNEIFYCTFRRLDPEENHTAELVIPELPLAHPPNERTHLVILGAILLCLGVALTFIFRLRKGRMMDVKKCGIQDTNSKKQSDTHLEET
UniProt Q9Y4X5: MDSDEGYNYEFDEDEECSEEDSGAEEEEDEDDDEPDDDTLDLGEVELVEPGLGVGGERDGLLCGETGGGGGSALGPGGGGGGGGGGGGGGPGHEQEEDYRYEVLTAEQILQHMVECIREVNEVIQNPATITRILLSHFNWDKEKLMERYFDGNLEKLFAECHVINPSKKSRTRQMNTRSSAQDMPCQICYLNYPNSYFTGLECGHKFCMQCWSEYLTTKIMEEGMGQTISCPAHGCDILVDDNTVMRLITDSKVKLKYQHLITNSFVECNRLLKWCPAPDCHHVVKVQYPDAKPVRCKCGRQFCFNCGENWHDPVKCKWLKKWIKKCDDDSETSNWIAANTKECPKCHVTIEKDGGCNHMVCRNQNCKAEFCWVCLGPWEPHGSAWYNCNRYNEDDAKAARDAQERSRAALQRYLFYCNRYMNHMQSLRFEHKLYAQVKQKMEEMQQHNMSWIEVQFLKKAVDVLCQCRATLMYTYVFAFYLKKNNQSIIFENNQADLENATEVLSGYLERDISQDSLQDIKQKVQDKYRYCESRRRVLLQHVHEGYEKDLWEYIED

Target: GST-PD-L1 (human) (UniProt Q9NZQ7)
Test: pull-down; purified GST-PD-L1 on glutathione-Sepharose 4B beads (4 °C, 1 h), then HA-ARIH1 from transfected HEK293T cells added (4 °C, 2 h); western blot; only the target purified

HA-ARIH1 (WT) (from UniProt Q9Y4X5 1-557) (enzyme)
binding: binds
